Measurements from article PMC12589655.
No constants are given. Whether binding was seen depends on the method and setting. In cells and extracts the contact can be indirect. Some entries that bind do so weakly or less than the wild type.

Sequences of proteins named here, by UniProt entry; tags and fusion partners are left off. A change or cut given only in a name is not applied to a line headed by its entry. A line that says so, or that is headed by a name, gives the form on record, which may keep a tag or linker. Residues count along the entry.
UniProt P22363: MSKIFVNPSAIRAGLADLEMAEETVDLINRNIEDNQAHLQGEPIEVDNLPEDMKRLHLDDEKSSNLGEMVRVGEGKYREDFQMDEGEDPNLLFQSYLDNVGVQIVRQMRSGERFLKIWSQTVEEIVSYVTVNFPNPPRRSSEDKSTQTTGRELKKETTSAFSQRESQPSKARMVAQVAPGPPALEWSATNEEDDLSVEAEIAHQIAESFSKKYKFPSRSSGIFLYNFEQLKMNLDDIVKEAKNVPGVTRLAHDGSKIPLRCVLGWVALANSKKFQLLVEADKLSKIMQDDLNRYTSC
GFP-P3 (rabies virus CVS-11 phosphoprotein, truncated isoform P3, residues 53-297, fused to GFP): residues 53-297 of P22363
UniProt Q13283: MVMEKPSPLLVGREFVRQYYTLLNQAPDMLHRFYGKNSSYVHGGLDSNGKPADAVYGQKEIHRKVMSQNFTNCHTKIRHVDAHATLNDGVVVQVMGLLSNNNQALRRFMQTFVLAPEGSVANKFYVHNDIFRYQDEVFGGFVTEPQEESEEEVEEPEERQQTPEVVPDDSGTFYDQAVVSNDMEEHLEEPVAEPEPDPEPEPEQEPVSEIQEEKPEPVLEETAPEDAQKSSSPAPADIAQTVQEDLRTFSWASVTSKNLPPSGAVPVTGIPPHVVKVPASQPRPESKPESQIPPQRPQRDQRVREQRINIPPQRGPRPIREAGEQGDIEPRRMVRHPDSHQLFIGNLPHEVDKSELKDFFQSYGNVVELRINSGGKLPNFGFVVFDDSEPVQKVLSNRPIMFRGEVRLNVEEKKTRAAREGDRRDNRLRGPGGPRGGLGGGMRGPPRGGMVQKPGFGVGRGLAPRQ
UniProt P06748: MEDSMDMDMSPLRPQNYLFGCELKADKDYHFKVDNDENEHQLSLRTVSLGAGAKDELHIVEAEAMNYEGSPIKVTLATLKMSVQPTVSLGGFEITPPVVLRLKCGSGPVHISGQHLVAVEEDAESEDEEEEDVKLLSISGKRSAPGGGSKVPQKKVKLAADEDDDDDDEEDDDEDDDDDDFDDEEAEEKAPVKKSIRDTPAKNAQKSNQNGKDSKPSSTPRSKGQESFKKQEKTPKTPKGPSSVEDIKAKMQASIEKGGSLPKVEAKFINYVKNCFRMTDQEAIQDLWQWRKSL

Columns and labels:
[1] = molecular target: GFP-P1 (rabies virus CVS-11 phosphoprotein, full-length isoform P1, fused to GFP) (rabies virus, strain CVS-11) (UniProt P22363); experiment: co-IP
[2] = molecular target: GFP-P3 (rabies virus CVS-11 phosphoprotein, truncated isoform P3, residues 53-297, fused to GFP) (rabies virus, strain CVS-11) (UniProt P22363); experiment: co-IP

Substance	binding [1]	binding [2]
G3BP1 (from UniProt Q13283 1-466)	binds	binds
nucleophosmin (NPM1) (from UniProt P06748 1-294)	binds	binds
